Laboratory results from publication PMC11237401.

What was measured:
Experiment in all cases: two-hybrid; bacterial adenylate cyclase-based two-hybrid (BACTH) in E. coli BTH101; bait on pKT25, prey on pUT18; grown at 30°C with 0.5 mM IPTG; β-galactosidase activity by Miller assay
Gp104 = molecular target: Gp104
[1] = molecular target: Gp11^A38E (S. aureus phage ΦNM1)
[2] = molecular target: Gp11 (S. aureus phage ΦNM1)
[3] = molecular target: Gp11^G36R (S. aureus phage ΦNM1)
[4] = molecular target: Gp11^S33L (S. aureus phage ΦNM1)

B1: DnaI (protein, UniProt Q3ZUA6 1-306)
chain: MKQFKSIINTSQDFEKRIEKIKKEVINDPDVKQFLEAHRAELTNAMIDEDLNVLQEYKDQQKHYDGHKFADCPNFVKGHVPELYVDNNRIKIRYLQCPCKIKYDEERFEAELITSHHMQRDTLNAKLKDIYMNHRDRLDVAMAADDICTAITNGEQVKGLYLYGPFGTGKSFILGAIANQLKSKKVRSTIIYLPEFIRTLKGGFKDGSFEKKLHRVREANILMLDDIGAEEVTPWVRDEVIGPLLHYRMVHELPTFFSSNFDYSELEHHLAMTRDGEEKTKAARIIERVKSLSTPYFLSGENFRNN
binding (Gp104): binds

B2: MurG (enzyme, UniProt Q2FYL5 1-356)
chain: MTKIAFTGGGTVGHVSVNLSLIPTALSQGYEALYIGSKNGIEREMIESQLPEIKYYPISSGKLRRYISLENAKDVFKVLKGILDARKVLKKEKPDLLFSKGGFVSVPVVIAAKSLNIPTIIHESDLTPGLANKIALKFAKKIYTTFEETLNYLPKEKADFIGATIREDLKNGNAHNGYQLTGFNENKKVLLVMGGSLGSKKLNSIIRENLDALLQQYQVIHLTGKGLKDAQVKKSGYIQYEFVKEDLTDLLAITDTVISRAGSNAIYEFLTLRIPMLLVPLGLDQSRGDQIDNANHFADKGYAKAIDEEQLTAQILLQELNEMEQERTRIINNMKSYEQSYTKEALFDKMIKDALN
binding [1]: no binding
binding [2]: binds
binding [3]: no binding
binding [4]: binds

No constants are given. Whether binding was seen depends on the method and setting. For some assays here: Binding calls can cover weak binding; strength is not graded here.
